Test results: article doi:10.1101/2025.09.09.675186
These are yes or no findings as the source states them, for the method shown. In cells and extracts the contact can be indirect. Some results given as binding are weak or reduced against the parent protein; the word gives no strength. For part of these data: Where a sequence is shown, tags or fusion partners need not be part of it.

T1: IRF7, endogenous in mouse bone marrow-derived macrophages (mouse (endogenous in BMDMs)) (UniProt P70434)
T1 sequence: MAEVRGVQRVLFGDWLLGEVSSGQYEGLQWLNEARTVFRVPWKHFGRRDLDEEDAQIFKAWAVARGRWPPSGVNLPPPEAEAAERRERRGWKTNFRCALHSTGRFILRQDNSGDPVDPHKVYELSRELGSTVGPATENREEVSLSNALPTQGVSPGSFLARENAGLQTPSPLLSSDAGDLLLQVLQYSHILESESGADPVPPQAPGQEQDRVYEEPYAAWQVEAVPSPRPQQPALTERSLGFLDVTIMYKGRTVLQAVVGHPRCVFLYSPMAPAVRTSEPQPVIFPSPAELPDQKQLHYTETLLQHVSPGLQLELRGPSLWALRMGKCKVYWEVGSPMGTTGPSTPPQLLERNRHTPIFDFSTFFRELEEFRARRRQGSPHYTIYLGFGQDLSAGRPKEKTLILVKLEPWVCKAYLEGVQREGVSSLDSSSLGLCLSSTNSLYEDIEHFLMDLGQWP

T2: V5-tagged IRF7 (IFN regulatory factor 7), stably expressed in IRF3-knockout HEK293T cells (HEK-KO.IRF7) (mouse) (UniProt P70434)
T2 sequence: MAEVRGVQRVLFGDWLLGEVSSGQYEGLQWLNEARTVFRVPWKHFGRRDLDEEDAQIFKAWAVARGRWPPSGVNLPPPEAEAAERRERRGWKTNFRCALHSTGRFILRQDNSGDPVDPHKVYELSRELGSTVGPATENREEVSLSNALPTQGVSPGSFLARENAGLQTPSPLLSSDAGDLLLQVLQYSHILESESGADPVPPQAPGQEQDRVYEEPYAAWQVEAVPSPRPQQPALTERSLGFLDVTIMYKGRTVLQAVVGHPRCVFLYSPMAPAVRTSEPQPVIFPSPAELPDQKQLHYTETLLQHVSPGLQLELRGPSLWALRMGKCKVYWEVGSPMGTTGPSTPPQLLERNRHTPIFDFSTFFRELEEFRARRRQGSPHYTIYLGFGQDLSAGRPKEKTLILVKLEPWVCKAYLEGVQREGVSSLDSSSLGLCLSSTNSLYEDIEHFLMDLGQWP


How the values were obtained:
[1] = biological target: T1, IRF7, endogenous in mouse bone marrow-derived macrophages (mouse (endogenous in BMDMs)); assay: proximity ligation
[2] = biological target: T2, V5-tagged IRF7 (IFN regulatory factor 7), stably expressed in IRF3-knockout HEK293T cells (HEK-KO.IRF7) (mouse); assay: co-IP

Binder | binding [1] | binding [2]
USP2, endogenous in mouse bone marrow-derived macrophages (enzyme, UniProt O88623 1-619) MSQLSSTLKRYTESSRYTDAPYAKPGYGTYTPSSYGANLAASFLEKEKLGFKPVSPTSFLPRPRTYGPSSILDCDRGRPLLRSDIIGSSKRSESQTRGNERPSGSGLNGGSGFSYGVSSNSLSYLPMNARDQGVTLSQKKSNSQSDLARDFSSLRTSDGYRTSDGYRTSEGFRIDPGNLGRSPMLARTRKELCALQGLYQAASRSEYLTDYLENYGRKGSAPQVLTQAPPPSRVPEVLSPTYRPSGRYTLWEKSKGQASGPSRSSSPGRDTMNSKSAQGLAGLRNLGNTCFMNSILQCLSNTRELRDYCLQRLYMRDLGHTSSAHTALMEEFAKLIQTIWTSSPNDVVSPSEFKTQIQRYAPRFMGYNQQDAQEFLRFLLDGLHNEVNRVAARPKASPETLDHLPDEEKGRQMWRKYLEREDSRIGDLFVGQLKSSLTCTDCGYCSTVFDPFWDLSLPIAKRGYPEVTLMDCMRLFTKEDILDGDEKPTCCRCRARKRCIKKFSVQRFPKILVLHLKRFSESRIRTSKLTTFVNFPLRDLDLREFASENTNHAVYNLYAVSNHSGTTMGGHYTAYCRSPVTGEWHTFNDSSVTPMSSSQVRTSDAYLLFYELASPPSRM | binds | 
OTUD5, endogenous in mouse bone marrow-derived macrophages (enzyme, UniProt Q3U2S4 1-566) MTILPKKKPPPPDADPANEPPPPGPLPPAPRRGAGVGVGGGGTGVGGGERDRDSGVVGARPRASPPPQGPLPGPPGALHRWALAVPPGAVAGPRPQQASPPPCGGPGGPGGGPGDALGATTAGVGAAGVVVGVGGTVGVGGCCSGPGHSKRRRQAPGVGAVGGASPEREEVGAGYNSEDEYEAAAARIEAMDPATVEQQEHWFEKALRDKKGFIIKQMKEDGACLFRAVADQVYGDQDMHEVVRKHCMDYLMKNADYFSNYVTEDFTTYINRKRKNNCHGNHIEMQAMAEMYNRPVEVYQYSTEPINTFHGIHQNEDEPIRVSYHRNIHYNSVVNPNKATIGVGLGLPSFKPGFAEQSLMKNAIKTSEESWIEQQMLEDKKRATDWEATNEAIEEQVARESYLQWLRDQEKQARQVRGPSQPRKASATCSSATAAASSGLEEWTSRSPRQRSSASSPEHPELHAELGIKPPSPGTVLALAKPPSPCAPGTSSQFSAGGDRATSPLVSLYPALECRALIQQMSPSAFGLNDWDDDEILASVLAVSQQEYLDSMKKNKVHREPPPDKS | binds | 
OTUD5 in HEK-KO.IRF7 cells (enzyme, UniProt Q96G74 1-571) MTILPKKKPPPPDADPANEPPPPGPMPPAPRRGGGVGVGGGGTGVGGGDRDRDSGVVGARPRASPPPQGPLPGPPGALHRWALAVPPGAVAGPRPQQASPPPCGGPGGPGGGPGDALGAAAAGVGAAGVVVGVGGAVGVGGCCSGPGHSKRRRQAPGVGAVGGGSPEREEVGAGYNSEDEYEAAAARIEAMDPATVEQQEHWFEKALRDKKGFIIKQMKEDGACLFRAVADQVYGDQDMHEVVRKHCMDYLMKNADYFSNYVTEDFTTYINRKRKNNCHGNHIEMQAMAEMYNRPVEVYQYSTGTSAVEPINTFHGIHQNEDEPIRVSYHRNIHYNSVVNPNKATIGVGLGLPSFKPGFAEQSLMKNAIKTSEESWIEQQMLEDKKRATDWEATNEAIEEQVARESYLQWLRDQEKQARQVRGPSQPRKASATCSSATAAASSGLEEWTSRSPRQRSSASSPEHPELHAELGMKPPSPGTVLALAKPPSPCAPGTSSQFSAGADRATSPLVSLYPALECRALIQQMSPSAFGLNDWDDDEILASVLAVSQQEYLDSMKKNKVHRDPPPDKS |  | binds
